A negative result means that nothing was seen under these conditions.

The series concerns Omomyc-Myc 18 (S-aryl linked covalent dimer). The experiment in a line: EMSA. The following applies: synthetic protein. A general note: A gel shift assay detects complexes by their altered migration in electrophoresis.

Regarding “CCGGCTGACACGTGGTATTAAT (double strand) [E-box DNA probe (22 bp)]”, the binding result is “no binding”.
